Reference: patent US20040001842A1

Amino acid sequences for entries named in this document (tags omitted). A change or cut given only in a name is not applied to a line headed by its entry.
UniProt P01350: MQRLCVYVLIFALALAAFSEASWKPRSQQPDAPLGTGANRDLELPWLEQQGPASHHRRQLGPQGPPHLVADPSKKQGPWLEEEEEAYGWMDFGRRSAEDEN

Target: truncated form of the human gastrin/CCK-B receptor (human)
Test: confocal fluorescence microscopy of transfected NIH3T3 cells

binding: binds
Binder: AYGWMDF (ligand, UniProt P01350 86-92, looked up, rhodal green label) [rhodal green labeled heptagastrin]

No constants are given. Whether binding was seen depends on the method and setting. Binding can be weak; no strength is given. Tags and fused reporters may be left off the sequences shown.
